Test system: maximal electroshock (MES) seizures
Test: MES test after oral administration in rats (screen and quantification)
Format: in vivo
Conditions: p.o.
Description: This screen discloses the time of onset, the approximate time of peak effect (TPE) and the duration of anticonvulsant activity or neurotoxicity.
The quantitative evaluation of the MES median effective dose (ED50) and toxic dose (TD50) was performed at previously estimated TPE—2 h.
Phase I of the in vivo studies involved three tests: MES, scPTZ and rotarod test for NT. Male albino mice (CF#1 strain, weighing 18–25 g) and male albino rats (Sprague–Dawley) were used as experimental animals. The animals were housed in metabolic cages and allowed free access to food and water. The compounds were injected intraperitoneally to mice as a suspension in 0.5 % methylcellulose/water mixture at a dose level 30, 100 or 300 mg/kg with anticonvulsant activity and neurotoxicity assessment at 0.5 and 4 h after administration. Promising derivatives from phase I underwent phase VIa in which they were administrated orally into rats at a fixed dose of 30 mg/kg for both MES and the rotarod toxicity determination at five pretreatment times: 0.25, 0.5, 1, 2, 4 h. Groups of eight mice or four rats are employed.
In the MES screen, an electrical stimulus of 0.2 s in duration (50 mA in mice and 150 mA in rats) is delivered via corneal electrodes primed with an electrolyte solution containing an anesthetic agent. The endpoint is the tonic extension of the hind limbs. […] Mice not displaying hind limb tonic extension are considered to be protected from seizures.

| Structure (SMILES) | TPE (time to peak effect) [h] |
| --- | --- |
| Cl.O=C(CN1CCN(c2cccc(C(F)(F)F)c2)CC1)Nc1cccc(C(F)(F)F)c1 [Compound 20, N-[3-(Trifluoromethyl)phenyl]-2-[4-[3-(trifluoromethyl)phenyl]piperazin-1-yl]acetamide monohydrochloride] | 2 |
| O=C1NC(=O)C(c2ccccc2)(c2ccccc2)N1 [Phenytoin, reference compound] | 1 |
| CCCC(CCC)C(=O)O [Valproic acid] | 1 |
